Assay results taken from patent publication US20040014143A1, “Method and apparatus for detecting and monitoring peptides, and peptides identified therewith” (priority 2002, published 2004).

Assay: In vivo microdialysis-CLC-MS2 monitoring of endogenous peptides in globus pallidus dialysate
Set-up: species or system rat
Settings: endogenous peptide, globus pallidus of anesthetized rats, n=7

YGGFM [Met-enkephalin]
(maximum) K+-stimulated dialysate level (150 mM K+ through the probe): 1900 ± 500 pM
basal dialysate level (basal conditions): 60 ± 30 pM
